These results are taken from PMC10483223.

By UniProt entry, the sequences of proteins in these tests, tags left out.
UniProt P48643: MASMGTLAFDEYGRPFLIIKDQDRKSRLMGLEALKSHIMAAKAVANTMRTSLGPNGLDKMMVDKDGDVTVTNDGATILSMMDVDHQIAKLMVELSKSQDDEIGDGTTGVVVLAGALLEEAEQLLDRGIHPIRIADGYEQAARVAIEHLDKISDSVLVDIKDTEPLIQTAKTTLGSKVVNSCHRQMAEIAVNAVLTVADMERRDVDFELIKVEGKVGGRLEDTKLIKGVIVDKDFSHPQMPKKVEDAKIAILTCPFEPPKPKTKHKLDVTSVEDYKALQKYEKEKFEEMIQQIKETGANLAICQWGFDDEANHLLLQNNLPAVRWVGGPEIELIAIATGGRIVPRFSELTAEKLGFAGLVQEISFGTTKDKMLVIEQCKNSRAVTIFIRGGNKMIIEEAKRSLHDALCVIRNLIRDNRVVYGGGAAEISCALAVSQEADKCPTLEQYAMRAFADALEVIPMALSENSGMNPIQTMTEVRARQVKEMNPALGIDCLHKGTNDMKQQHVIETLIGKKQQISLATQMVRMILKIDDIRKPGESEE

Results are given in words; binding and its absence hold for the method and conditions named. Binding seen in cells or lysates may run through a third protein. Some entries that bind do so weakly or less than the wild type. For part of these data: Tags and fused reporters may be left off the sequences shown.

Holding throughout (assay): co-IP; HEK293T transfected with Flag-WDTC1, its truncates or vector alone; immunoprecipitation with anti-Flag M2 beads; endogenous CCT1 and CCT5 detected by blot
Experiment [1] deals with T1, Flag-tagged WDTC1 (mouse) (UniProt Q80ZK9).
T1 sequence: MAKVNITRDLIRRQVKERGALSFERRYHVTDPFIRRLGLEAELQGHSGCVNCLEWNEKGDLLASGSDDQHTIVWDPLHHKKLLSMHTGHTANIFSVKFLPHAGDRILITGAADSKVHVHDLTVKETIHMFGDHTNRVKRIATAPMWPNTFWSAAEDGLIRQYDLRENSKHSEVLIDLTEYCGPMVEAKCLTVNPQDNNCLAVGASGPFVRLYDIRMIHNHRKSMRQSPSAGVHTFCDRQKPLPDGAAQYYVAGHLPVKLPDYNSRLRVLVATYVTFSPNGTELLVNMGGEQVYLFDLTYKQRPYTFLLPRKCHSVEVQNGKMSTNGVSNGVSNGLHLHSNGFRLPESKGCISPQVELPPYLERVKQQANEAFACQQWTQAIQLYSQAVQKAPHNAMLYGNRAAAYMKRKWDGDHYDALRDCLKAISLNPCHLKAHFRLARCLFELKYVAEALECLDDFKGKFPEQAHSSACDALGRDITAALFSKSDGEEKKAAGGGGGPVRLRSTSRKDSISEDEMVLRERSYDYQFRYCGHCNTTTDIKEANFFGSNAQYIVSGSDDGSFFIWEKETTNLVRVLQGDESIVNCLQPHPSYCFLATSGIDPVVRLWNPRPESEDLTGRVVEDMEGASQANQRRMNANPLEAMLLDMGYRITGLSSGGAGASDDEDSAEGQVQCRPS

Experiment [2] deals with T2, M2 truncate (aa 1-343) of WDTC1 (mouse) (UniProt Q80ZK9).
T2 sequence: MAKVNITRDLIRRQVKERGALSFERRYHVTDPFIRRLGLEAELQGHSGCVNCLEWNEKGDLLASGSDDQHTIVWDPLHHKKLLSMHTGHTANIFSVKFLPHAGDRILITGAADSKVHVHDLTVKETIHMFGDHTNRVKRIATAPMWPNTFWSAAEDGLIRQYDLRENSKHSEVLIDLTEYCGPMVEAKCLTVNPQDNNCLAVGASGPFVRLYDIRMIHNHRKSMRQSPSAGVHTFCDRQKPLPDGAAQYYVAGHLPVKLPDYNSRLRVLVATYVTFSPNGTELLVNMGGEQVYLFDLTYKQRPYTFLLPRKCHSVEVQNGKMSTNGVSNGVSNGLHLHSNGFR

Experiment [3] concerns the target T3, M1 truncate (aa1-241) of WDTC1 (mouse) (UniProt Q80ZK9).
T3 sequence: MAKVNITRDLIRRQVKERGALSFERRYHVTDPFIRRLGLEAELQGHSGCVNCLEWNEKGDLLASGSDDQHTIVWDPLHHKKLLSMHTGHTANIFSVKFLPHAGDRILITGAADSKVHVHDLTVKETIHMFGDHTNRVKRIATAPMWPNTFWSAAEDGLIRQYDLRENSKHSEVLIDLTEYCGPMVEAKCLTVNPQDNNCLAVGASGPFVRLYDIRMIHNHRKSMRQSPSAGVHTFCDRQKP

Regarding “endogenous CCT5 (from UniProt P48643 1-541)”, the binding result in experiment [1] is recorded as “binds”; in experiment [2], “binds”; in experiment [3], “binds weakly”.
